No constants are given. Whether binding was seen depends on the method and setting. In cells and extracts the contact can be indirect. Binding calls can cover weak binding; strength is not graded here.
Target: calreticulin (CALR) (mouse (endogenous in MEF)) (UniProt P14211)
Assay: co-IP; immunoprecipitation with anti-CALR antibody from cell lysates (50 ug) of Calr+/+ or Calr-/- MEFs expressing Flag/His tagged GDF9 or BMP15; immunoprecipitates probed with anti-His antibody on immunoblots

Protein sequences, listed by entry. Tags and fused reporters are not part of them. Lines headed by an entry give the natural chain unless they say otherwise; changes in a name come on top. Residues count along the entry.
UniProt P14211, residues 18-416: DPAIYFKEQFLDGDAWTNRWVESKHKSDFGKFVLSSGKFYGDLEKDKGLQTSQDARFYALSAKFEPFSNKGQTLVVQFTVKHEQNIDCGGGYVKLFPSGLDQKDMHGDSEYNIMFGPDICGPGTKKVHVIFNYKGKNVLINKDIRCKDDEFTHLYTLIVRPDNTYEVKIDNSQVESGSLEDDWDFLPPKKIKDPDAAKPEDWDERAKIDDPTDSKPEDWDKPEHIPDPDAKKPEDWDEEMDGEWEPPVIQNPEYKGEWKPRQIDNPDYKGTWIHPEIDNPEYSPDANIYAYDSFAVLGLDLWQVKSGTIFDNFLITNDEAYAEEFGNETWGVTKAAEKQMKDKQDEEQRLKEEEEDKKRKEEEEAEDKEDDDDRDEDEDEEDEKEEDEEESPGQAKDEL
UniProt Q9Z0L4: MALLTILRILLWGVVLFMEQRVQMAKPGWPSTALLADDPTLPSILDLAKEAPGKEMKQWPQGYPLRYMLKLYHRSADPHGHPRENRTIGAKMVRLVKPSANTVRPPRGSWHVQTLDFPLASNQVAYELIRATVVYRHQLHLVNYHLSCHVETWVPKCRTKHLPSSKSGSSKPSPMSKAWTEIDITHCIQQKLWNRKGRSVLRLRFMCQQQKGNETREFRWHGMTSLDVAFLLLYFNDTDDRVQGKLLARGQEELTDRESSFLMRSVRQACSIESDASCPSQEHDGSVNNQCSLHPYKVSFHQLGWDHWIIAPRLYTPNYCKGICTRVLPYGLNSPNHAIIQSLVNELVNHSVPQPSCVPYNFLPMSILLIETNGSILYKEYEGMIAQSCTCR
UniProt Q07105: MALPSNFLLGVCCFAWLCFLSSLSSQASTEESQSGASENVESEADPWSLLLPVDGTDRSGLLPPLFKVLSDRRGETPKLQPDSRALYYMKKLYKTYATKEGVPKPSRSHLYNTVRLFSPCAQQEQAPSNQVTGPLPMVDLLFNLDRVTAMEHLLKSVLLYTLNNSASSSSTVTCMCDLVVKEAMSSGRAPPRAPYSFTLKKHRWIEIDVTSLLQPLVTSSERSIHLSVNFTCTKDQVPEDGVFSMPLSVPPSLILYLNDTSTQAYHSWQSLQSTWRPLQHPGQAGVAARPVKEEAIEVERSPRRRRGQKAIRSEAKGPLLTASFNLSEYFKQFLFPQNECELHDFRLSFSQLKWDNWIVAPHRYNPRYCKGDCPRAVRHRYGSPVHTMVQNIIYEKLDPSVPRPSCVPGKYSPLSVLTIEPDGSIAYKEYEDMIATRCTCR

Row | Substance | binding
1 | mouse BMP15 tagged with Flag/Hisx6 at the C-terminus (from UniProt Q9Z0L4) | binds
2 | mouse GDF9 tagged with Flag/Hisx6 at the C-terminus (from UniProt Q07105) | binds

Reference: publication PMC4585710
